{"source": "PubChem BioAssay AID1224826 (NIAID, 2016)", "purpose": "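Regulators of Tlr4 signalling leading to Tnf-alpha expression in macrophages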 (primary screen)", "cell system": "RAW264.7 G9 macrophages from mouse bearing reporters for p65 (GFP) and the Tnf promoter (mCherry)", "reagents": "siRNA pool against mouse genes, 100 nM", "duration": "16 h of LPS stimulation, after 2 days of siRNA transfection", "challenge": "bacterial lipopolysaccharide (Salmonella minnesota R595), 10 ng/ml", "read-out": "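Nuclear mCherry signal of the Tnf promoter reporter measured by imaging after background removal, scaled to each plate median and turned into robust z-scores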", "reading the numbers": "Tnf reporter robust z-score: higher = stronger Tnf promoter reporter signal after LPS", "call rule": "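a well counts as active at a score of -1.3 or below (Tlr4 knock-down control median) or above 3 (raised signal); controls and wells holding fewer than 50 cells are excluded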", "calls": "active = Tnf reporter clearly lowered or raised; inactive = no clear change in Tnf reporter", "note": "This is an unselected part of about 17,000 reagents. Of all reagents, about 1,110 (6.6%) are marked active. 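Active means lowered or raised reporter signal; replicate intensities are raw and not normalised per plate.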 Some reagents were tested in more than one well and are listed for each. Further read-outs or replicates are left out here. No sequences are given here."}
{"target": "Akap1 (A kinase anchor protein 1)", "Tnf reporter robust z-score": -0.46, "fewer than 50 cells in well": "enough cells in well", "Outcome": "inactive"}
{"target": "Cd2bp2 (CD2 cytoplasmic tail binding protein 2)", "Tnf reporter robust z-score": 1.43, "fewer than 50 cells in well": "enough cells in well", "Outcome": "inactive"}
{"target": "Faim (Fas apoptotic inhibitory molecule)", "Tnf reporter robust z-score": 0.78, "fewer than 50 cells in well": "enough cells in well", "Outcome": "inactive"}
{"target": "Bcl11a (BCL11 transcription factor A)", "Tnf reporter robust z-score": 1.18, "fewer than 50 cells in well": "enough cells in well", "Outcome": "inactive"}
{"target": "Casp3 (caspase 3)", "Tnf reporter robust z-score": -0.03, "fewer than 50 cells in well": "enough cells in well", "Outcome": "inactive"}
{"target": "Ren1 (renin 1 structural)", "Tnf reporter robust z-score": 0.79, "fewer than 50 cells in well": "enough cells in well", "Outcome": "inactive"}
{"target": "Dnaaf9 (dynein axonemal assembly factor 9)", "fewer than 50 cells in well": "fewer than 50 cells per well; well left out of calls", "Outcome": "inactive"}
{"target": "Lrrd1 (leucine rich repeats and death domain containing 1)", "Tnf reporter robust z-score": -0.07, "fewer than 50 cells in well": "enough cells in well", "Outcome": "inactive"}
{"target": "Slc9a6", "Tnf reporter robust z-score": -0.8, "fewer than 50 cells in well": "enough cells in well", "Outcome": "inactive"}
{"target": "Csf1r (colony stimulating factor 1 receptor)", "Tnf reporter robust z-score": 0.61, "fewer than 50 cells in well": "enough cells in well", "Outcome": "inactive"}
{"target": "Ppp1r1c (protein phosphatase 1, regulatory inhibitor subunit 1C)", "fewer than 50 cells in well": "fewer than 50 cells per well; well left out of calls", "Outcome": "inactive"}
{"target": "Gabrp (gamma-aminobutyric acid type A receptor subunit pi)", "Tnf reporter robust z-score": 0.33, "fewer than 50 cells in well": "enough cells in well", "Outcome": "inactive"}
{"target": "C5ar2 (complement component 5a receptor 2)", "Tnf reporter robust z-score": -1.42, "fewer than 50 cells in well": "enough cells in well", "Outcome": "active"}
{"target": "Or1a1 (olfactory receptor family 1 subfamily A member 1)", "Tnf reporter robust z-score": 0.91, "fewer than 50 cells in well": "enough cells in well", "Outcome": "inactive"}
{"target": "Or1a1 (olfactory receptor family 1 subfamily A member 1)", "Tnf reporter robust z-score": 2.01, "fewer than 50 cells in well": "enough cells in well", "Outcome": "inactive"}
{"target": "Fam220a (family with sequence similarity 220, member A)", "Tnf reporter robust z-score": 0.71, "fewer than 50 cells in well": "enough cells in well", "Outcome": "inactive"}
{"target": "Susd6 (sushi domain containing 6)", "Tnf reporter robust z-score": 0.99, "fewer than 50 cells in well": "enough cells in well", "Outcome": "inactive"}
{"target": "Cox5a (cytochrome c oxidase subunit 5A)", "Tnf reporter robust z-score": 0.45, "fewer than 50 cells in well": "enough cells in well", "Outcome": "inactive"}
{"target": "Tnfsf8 (tumor necrosis factor (ligand) superfamily, member 8)", "Tnf reporter robust z-score": -0.68, "fewer than 50 cells in well": "enough cells in well", "Outcome": "inactive"}
{"target": "Zfyve27 (zinc finger, FYVE domain containing 27)", "Tnf reporter robust z-score": 1.05, "fewer than 50 cells in well": "enough cells in well", "Outcome": "inactive"}
{"target": "Rabgef1 (RAB guanine nucleotide exchange factor (GEF) 1)", "Tnf reporter robust z-score": 0.06, "fewer than 50 cells in well": "enough cells in well", "Outcome": "inactive"}
